From patent publication US8426353B2, “Process for preparing polyurea microcapsules” (Firmenich SA, priority 2008, dated 2013) come the findings set out here.

The nature of series [1]: GC-MS analysis of perfume leaked out of the capsules during one month storage in concentrated fabric softener. Type of series: physicochemical. To be noted: perfume of Example 9 encapsulated per Example 2, capsules at 1.25%. As for the experimental part: The concentrated fabric softener base was prepared by admixing the ingredients listed in Table 4, in the amounts indicated.

Series [2] can be described thus: GC-MS analysis of perfume leaked out of the capsules during one month storage in concentrated liquid detergent. Type of series: physicochemical. The settings on record: perfume of Example 9 encapsulated per Example 2, capsules at 1.25% in Tide 2x Concentrated HE Free. From the text: The concentrated liquid detergent base was a commercially available Tide® 2× Concentrated HE Free of perfume & dye (trademark of Procter and Gamble, USA).
The concentrated liquid detergent base was the commercially available Tide® 2× Concentrated HE Free of perfume & dye (trademark of Procter and Gamble, USA).

The structures appear in SMILES notation.

As for `CCCCCCCC1CCC(=O)O1` (stereo not shown) [γ-Undecalactone], the “Percentage of perfume having leaked out of the capsules upon one month storage, % In fabric softener at 22° C.” value in series [1] (one month at 22° C.) amounted to 26%. Besides, in series [1] (one month at 37° C.), the “Percentage of perfume having leaked out of the capsules upon one month storage, % In fabric softener at 37° C.” value worked out at 100%. Also, the “Percentage of perfume having leaked out of the capsules upon one month storage, % In Concentrated Liquid Detergent at 22° C.” value in series [2] (one month at 22° C.) was determined as 26%. The “Percentage of perfume having leaked out of the capsules upon one month storage, % In Concentrated Liquid Detergent at 37° C.” value in series [2] (one month at 37° C.) was determined as 90%.
